In the supplement of paper PMC3682954:
Counter-ions that a name gives are not always drawn. ± gives the standard deviation of the averaged measurements. The list shows a part of the results. Repeats are few or missing, and single values can be far off.

test system: RAW 264.7; experiment: cell viability (MTT) relative to vehicle control; higher = more viable cells; conditions: compound concentration: 3 uM; stimulus: HMGB1 5 ug/ml, 18 h

With CC(CCc1ccc(O)cc1)NCC(O)c1ccc(O)cc1 (stereo unspecified) [Ractopamine] as the compound, how does the cell viability read?
Its cell viability is 98.6%.

How did the cell viability turn out when CC(=O)[C@H]1CC[C@H]2[C@@H]3CC=C4C[C@@H](OC(=O)CCC(=O)O)CC[C@]4(C)[C@H]3CC[C@]12C was run?
The cell viability was 127%.

For CCCCC(CC)COC(=O)c1ccccc1O (stereo unspecified), which cell viability is on record?
The cell viability was 98.1%.

CCN(CCCc1ccccc1)CCCc1ccccc1 was tested. Which cell viability did it give?
The cell viability was 105%.

Which cell viability does the source give for CCN(CCCc1ccccc1)CCCc1ccccc1 [Alverine citrate salt] here?
Its cell viability is 111%.

With CC(C)(C)C(O)/C=C/c1ccc2c(c1)OCO2 (stereo unspecified) [Stiripentol] as the compound, how does the cell viability read?
Its cell viability is 92.6%.

With CC[C@]1(O)C[C@@H]2CN(CCc3c([nH]c4ccccc34)[C@@](C(=O)OC)(c3cc4c(cc3OC)N(C)[C@H]3[C@@](O)(C(=O)OC)[C@H](OC(C)=O)[C@]5(CC)C=CCN6CC[C@]43[C@@H]65)C2)C1 [Vinblastine] as the compound, how does the cell viability read?
The cell viability was 85.1%.

Which cell viability does the source give for CC[C@]1(O)C[C@@H]2CN(CCc3c([nH]c4ccccc34)[C@@](C(=O)OC)(c3cc4c(cc3OC)N(C)[C@H]3[C@@](O)(C(=O)OC)[C@H](OC(C)=O)[C@]5(CC)C=CCN6CC[C@]43[C@@H]65)C2)C1 here?
Its cell viability is 78.6 ± 10%.

Which cell viability does the source give for CC[C@]1(O)C[C@@H]2CN(CCc3c([nH]c4ccccc34)[C@@](C(=O)OC)(c3cc4c(cc3OC)N(C)[C@H]3[C@@](O)(C(=O)OC)[C@H](OC(C)=O)[C@]5(CC)C=CCN6CC[C@]43[C@@H]65)C2)C1 [Vinblastine sulfate salt] here?
The cell viability was 89.9%.

With CCCCC#Cc1nc(NC)c2ncn([C@@H]3O[C@H](CO)[C@@H](O)[C@H]3O)c2n1 as the compound, how does the cell viability read?
Its cell viability is 97%.

For CCN(CC)C(=O)N1CCN(C)CC1 [Diethylcarbamazine citrate], which cell viability is on record?
Its cell viability is 95%.

Which cell viability does the source give for CCN(CC)C(=O)N1CCN(C)CC1 here?
Its cell viability is 99.6%.

For O=C(O)c1cc(O)c(O)c(O)c1, which cell viability is on record?
Its cell viability is 107%.

Which cell viability does the source give for Nc1nccc2c1ncn2[C@@H]1O[C@H](CO)[C@@H](O)[C@H]1O [3-deazaadenosine] here?
The cell viability was 96.1%.

How did the cell viability turn out when N[C@@H](Cc1ccc(F)cc1)C(=O)O [p-Fluoro-L-phenylalanine] was run?
The cell viability was 104%.

For O=P(O)(O)C(O)(Cc1cccnc1)P(=O)(O)O [Risedronic acid], which cell viability is on record?
Its cell viability is 94.4%.

With O=P(O)(O)C(O)(Cc1cccnc1)P(=O)(O)O as the compound, how does the cell viability read?
Its cell viability is 97.8%.

With CCCC(C(=O)OCCN(CC)CC)(c1ccccc1)c1ccccc1 [Proadifen hydrochloride] as the compound, how does the cell viability read?
Its cell viability is 114%.

Which cell viability does the source give for CCCC(C(=O)OCCN(CC)CC)(c1ccccc1)c1ccccc1 here?
The cell viability was 108%.

How did the cell viability turn out when CCCC(C(=O)OCCN(CC)CC)(c1ccccc1)c1ccccc1 [SKF-525A hydrochloride] was run?
The cell viability was 99.9%.

With CCC1=C[C@H]2CN(C1)Cc1c([nH]c3ccccc13)[C@@](C(=O)OC)(c1cc3c(cc1OC)N(C)[C@H]1[C@@](O)(C(=O)OC)[C@H](OC(C)=O)[C@]4(CC)C=CCN5CC[C@]31[C@@H]54)C2 as the compound, how does the cell viability read?
Its cell viability is 78.2%.
